This is one part of the list.
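Also: competitive chemoproteomic profiling in live THP-1 cells with an iodoacetamide desthiobiotin (IA-DTB) probe, comparing probe-labelled peptide intensities in compound-treated cells against DMSO-treated controls.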

Sequences of proteins named here, by UniProt entry; tags and fusion partners are left off. A change or cut given only in a name is not applied to a line headed by its entry.
UniProt Q9NQ34: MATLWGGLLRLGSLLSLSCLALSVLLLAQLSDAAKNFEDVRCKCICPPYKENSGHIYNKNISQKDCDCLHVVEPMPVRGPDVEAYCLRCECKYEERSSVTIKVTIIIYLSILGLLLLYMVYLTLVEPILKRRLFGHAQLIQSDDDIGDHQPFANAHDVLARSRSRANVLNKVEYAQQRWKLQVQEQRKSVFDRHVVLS
UniProt P60174, whole entry, looked up: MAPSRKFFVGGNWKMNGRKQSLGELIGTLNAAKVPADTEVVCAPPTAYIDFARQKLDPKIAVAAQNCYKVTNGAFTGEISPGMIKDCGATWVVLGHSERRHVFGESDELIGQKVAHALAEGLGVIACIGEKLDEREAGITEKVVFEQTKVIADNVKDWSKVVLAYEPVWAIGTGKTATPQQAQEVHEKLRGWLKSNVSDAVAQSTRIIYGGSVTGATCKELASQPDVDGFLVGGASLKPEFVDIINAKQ
UniProt Q68CZ2: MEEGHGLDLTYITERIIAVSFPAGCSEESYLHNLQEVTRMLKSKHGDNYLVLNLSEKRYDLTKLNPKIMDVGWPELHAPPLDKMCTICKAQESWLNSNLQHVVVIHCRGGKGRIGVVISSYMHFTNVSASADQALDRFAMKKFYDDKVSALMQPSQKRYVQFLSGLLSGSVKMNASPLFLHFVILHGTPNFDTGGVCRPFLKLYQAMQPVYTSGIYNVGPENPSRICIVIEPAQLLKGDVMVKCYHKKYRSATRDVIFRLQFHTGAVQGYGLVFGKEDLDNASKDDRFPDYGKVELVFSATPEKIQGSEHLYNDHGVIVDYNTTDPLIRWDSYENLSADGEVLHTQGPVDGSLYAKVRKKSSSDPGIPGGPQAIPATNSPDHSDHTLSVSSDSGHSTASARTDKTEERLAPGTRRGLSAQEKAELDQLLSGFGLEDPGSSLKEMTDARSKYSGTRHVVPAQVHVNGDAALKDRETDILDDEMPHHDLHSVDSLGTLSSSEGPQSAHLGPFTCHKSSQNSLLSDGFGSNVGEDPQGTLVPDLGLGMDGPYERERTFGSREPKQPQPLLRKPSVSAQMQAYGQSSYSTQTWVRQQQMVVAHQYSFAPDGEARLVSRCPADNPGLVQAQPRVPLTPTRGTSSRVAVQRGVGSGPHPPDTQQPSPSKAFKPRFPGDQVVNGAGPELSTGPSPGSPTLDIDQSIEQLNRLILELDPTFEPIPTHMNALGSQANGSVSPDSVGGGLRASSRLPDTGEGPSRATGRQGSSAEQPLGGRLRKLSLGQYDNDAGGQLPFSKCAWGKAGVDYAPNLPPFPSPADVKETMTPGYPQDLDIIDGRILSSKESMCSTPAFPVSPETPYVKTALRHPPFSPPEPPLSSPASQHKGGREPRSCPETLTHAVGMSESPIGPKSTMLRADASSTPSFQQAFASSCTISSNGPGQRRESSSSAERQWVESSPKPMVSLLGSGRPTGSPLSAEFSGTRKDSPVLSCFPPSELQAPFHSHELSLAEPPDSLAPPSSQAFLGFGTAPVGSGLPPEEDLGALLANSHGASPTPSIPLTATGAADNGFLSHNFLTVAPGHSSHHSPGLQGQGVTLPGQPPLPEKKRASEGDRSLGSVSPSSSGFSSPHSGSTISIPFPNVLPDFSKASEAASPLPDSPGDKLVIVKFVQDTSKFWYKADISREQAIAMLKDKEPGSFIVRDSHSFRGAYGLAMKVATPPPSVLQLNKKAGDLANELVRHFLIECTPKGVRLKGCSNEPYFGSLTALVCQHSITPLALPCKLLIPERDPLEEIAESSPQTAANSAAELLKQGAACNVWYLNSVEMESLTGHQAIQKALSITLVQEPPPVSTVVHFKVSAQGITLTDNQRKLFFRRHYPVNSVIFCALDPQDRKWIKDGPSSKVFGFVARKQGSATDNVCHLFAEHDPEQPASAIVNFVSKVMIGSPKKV
UniProt Q92973: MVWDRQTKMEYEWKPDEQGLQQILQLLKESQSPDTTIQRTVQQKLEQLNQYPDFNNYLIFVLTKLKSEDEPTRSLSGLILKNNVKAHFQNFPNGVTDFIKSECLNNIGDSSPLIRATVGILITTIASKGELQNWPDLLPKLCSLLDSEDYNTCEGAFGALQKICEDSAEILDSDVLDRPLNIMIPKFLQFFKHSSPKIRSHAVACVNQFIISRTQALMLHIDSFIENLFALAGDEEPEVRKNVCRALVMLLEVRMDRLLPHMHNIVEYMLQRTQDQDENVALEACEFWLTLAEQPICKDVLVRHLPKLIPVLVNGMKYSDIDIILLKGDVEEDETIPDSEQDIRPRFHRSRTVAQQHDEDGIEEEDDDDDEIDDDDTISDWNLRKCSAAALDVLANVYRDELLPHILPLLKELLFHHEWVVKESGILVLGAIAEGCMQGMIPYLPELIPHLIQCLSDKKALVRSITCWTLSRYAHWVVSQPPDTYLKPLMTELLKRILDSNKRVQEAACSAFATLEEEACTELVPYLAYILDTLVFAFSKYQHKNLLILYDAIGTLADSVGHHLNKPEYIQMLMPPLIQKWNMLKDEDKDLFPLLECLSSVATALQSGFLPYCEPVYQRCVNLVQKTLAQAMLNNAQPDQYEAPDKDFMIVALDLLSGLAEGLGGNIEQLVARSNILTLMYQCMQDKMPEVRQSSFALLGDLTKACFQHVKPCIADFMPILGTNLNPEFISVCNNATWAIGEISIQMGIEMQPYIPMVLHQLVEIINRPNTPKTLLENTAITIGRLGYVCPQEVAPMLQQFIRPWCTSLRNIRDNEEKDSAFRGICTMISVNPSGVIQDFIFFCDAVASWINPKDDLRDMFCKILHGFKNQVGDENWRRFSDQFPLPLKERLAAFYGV
UniProt Q9NV64: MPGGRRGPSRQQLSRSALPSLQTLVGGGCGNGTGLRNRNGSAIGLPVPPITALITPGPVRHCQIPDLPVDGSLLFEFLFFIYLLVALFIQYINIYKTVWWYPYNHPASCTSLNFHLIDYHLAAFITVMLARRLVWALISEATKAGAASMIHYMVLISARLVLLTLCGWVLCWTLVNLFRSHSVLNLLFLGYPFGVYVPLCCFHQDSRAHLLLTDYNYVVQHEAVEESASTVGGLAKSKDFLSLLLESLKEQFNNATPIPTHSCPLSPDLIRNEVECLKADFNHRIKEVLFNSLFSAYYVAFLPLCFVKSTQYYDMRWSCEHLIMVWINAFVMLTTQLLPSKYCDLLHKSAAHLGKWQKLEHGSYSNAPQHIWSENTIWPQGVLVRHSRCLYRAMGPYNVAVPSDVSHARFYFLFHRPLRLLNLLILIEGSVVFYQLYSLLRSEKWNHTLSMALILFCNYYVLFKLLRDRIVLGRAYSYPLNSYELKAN
UniProt O95985: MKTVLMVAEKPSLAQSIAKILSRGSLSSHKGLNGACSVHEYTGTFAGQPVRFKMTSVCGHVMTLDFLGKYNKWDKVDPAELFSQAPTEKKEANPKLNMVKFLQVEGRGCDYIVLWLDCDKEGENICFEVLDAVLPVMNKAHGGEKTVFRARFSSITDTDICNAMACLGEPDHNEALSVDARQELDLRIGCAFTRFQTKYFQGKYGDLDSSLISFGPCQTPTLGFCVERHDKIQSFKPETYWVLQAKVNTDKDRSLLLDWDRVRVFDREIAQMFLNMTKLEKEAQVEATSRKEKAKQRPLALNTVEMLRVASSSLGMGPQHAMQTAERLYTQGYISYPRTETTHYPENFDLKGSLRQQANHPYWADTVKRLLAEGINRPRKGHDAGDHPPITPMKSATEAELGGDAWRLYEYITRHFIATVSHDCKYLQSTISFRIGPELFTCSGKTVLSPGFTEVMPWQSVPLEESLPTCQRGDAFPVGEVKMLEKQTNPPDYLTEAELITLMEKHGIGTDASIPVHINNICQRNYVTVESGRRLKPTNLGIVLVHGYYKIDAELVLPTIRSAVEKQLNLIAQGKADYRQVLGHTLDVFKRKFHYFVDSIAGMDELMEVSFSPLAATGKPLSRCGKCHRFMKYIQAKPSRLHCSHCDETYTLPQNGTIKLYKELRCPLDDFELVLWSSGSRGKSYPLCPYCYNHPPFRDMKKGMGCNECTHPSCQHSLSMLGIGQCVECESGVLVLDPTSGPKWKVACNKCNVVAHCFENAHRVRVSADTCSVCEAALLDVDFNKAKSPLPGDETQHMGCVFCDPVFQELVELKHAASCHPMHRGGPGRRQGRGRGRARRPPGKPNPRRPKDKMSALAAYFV
UniProt Q8IUX1: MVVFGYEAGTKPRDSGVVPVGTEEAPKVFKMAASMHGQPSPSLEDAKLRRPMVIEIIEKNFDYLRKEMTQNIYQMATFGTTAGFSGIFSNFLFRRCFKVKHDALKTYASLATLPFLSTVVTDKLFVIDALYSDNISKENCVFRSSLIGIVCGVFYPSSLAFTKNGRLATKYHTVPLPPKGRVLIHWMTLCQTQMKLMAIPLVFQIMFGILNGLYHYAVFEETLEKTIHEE
UniProt Q99805: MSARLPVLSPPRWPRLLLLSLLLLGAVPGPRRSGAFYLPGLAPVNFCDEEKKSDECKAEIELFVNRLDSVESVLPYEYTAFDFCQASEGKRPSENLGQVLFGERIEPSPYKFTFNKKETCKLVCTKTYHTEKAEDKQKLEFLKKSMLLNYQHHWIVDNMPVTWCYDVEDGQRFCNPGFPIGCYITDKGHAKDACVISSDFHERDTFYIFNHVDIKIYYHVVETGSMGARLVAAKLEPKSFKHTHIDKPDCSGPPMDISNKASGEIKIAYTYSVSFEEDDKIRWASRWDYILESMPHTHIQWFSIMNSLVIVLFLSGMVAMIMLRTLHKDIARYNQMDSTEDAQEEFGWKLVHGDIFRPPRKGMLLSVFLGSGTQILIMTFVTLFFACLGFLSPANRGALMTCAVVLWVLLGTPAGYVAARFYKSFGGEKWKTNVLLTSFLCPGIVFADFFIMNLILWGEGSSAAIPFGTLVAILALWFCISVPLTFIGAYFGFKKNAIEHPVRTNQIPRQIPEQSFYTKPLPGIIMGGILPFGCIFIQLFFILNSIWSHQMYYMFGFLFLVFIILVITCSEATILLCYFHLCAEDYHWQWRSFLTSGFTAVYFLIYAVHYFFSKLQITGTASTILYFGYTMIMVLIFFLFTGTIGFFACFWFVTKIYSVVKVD
UniProt O15321, whole entry, looked up: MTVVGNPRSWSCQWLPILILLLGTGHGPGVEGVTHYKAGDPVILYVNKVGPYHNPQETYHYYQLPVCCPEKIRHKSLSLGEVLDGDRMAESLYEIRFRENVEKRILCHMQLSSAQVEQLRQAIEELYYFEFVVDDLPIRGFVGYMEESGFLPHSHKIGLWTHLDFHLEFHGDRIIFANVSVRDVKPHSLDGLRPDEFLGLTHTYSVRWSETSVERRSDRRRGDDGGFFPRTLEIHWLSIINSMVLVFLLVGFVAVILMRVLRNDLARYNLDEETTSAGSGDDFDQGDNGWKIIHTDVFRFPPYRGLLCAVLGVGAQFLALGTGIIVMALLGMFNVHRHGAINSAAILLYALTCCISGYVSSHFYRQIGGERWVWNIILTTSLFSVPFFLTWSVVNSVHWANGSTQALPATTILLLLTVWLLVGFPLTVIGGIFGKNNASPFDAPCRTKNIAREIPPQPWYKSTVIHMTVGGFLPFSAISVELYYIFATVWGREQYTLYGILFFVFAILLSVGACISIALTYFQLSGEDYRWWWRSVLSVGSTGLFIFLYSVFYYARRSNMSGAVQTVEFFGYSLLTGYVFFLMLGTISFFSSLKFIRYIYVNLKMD
UniProt Q6ZXV5: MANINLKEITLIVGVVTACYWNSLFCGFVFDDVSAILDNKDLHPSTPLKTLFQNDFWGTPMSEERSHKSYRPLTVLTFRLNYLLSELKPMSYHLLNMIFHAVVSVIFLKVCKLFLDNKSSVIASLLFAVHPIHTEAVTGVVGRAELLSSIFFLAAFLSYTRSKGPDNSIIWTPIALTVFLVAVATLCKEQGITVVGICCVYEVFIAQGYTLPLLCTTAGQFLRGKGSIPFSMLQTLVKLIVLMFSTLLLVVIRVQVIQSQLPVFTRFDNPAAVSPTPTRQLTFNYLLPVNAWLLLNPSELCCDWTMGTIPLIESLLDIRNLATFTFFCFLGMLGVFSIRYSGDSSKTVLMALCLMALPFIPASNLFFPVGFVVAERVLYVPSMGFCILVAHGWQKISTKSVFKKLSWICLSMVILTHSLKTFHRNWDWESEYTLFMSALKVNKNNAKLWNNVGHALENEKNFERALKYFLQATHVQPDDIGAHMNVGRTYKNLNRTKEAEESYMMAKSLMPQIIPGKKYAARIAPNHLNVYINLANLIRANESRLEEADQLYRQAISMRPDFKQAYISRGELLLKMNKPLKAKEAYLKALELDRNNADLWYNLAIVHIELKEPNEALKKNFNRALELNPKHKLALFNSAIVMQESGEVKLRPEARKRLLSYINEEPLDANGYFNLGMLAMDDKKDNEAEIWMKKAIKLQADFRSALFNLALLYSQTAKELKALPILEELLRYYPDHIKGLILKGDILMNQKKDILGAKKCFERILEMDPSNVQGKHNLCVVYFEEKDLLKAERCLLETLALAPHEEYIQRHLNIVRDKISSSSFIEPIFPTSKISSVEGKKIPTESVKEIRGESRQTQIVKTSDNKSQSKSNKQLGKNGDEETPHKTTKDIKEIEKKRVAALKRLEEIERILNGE

Compound in the first experiment: CC1Cc2ccccc2N1C(=O)C1CCCN(C1)C(=O)CCl (mixture of isomers) [TRIM25 ligand 11 (diastereomer mixture)]
In words: probe-labelled cysteine peptide fold change vs DMSO (competition) (log2 fold change); higher = less target engagement (more negative = stronger competition). The conditions noted are these: 10 µM; THP-1; incubation time: 4 h.
Turning to “TMEM9B_Q9NQ34_68_DCDCLHVVEPMPVRGPDVEAYCLR (UniProt Q9NQ34)”, the “probe-labelled cysteine peptide fold change” value amounted to 0.112.

“TM7SF3_Q9NS93_180_GVDPPPCDAGTDQDSR (UniProt Q9NS93)”: the “probe-labelled cysteine peptide fold change” value is 0.0229.

For “TOPBP1_Q92547_1485_TEYIADYLMQESPPHVENYCLPEAISFIQNNK (UniProt Q92547)”, the “probe-labelled cysteine peptide fold change” value worked out at 0.321.

As for “TOP1_P11387_386_RIMPEDIIINCSK (UniProt P11387)”, the “probe-labelled cysteine peptide fold change” value was -0.0617.

For “TNIP2_Q8NFZ5_428_HVAECCQ (UniProt Q8NFZ5)”, the “probe-labelled cysteine peptide fold change” value was 0.0234.

Take “TMPO_P42166_341_SGIQPLCPER (UniProt P42166)”: the “probe-labelled cysteine peptide fold change” value was -0.0437.

As for “TP53BP1_Q12888_101_VADPVDSSNLDTCGSISQVIEQLPQPNR (UniProt Q12888)”, the “probe-labelled cysteine peptide fold change” value was 0.279.

Regarding “TPI1_P60174_124_DCGATWVVLGHSER (UniProt P60174)”, the “probe-labelled cysteine peptide fold change” value came out at 0.1.

For “TNS3_Q68CZ2_25_IIAVSFPAGCSEESYLHNLQEVTR (UniProt Q68CZ2)”, the “probe-labelled cysteine peptide fold change” value was -0.0308.

On to “TNPO1_Q92973_153_LCSLLDSEDYNTCEGAFGALQK (UniProt Q92973)”, for which the “probe-labelled cysteine peptide fold change” value was -0.0199.

For “TOP1_P11387_505_AGNEKEEGETADTVGCCSLR (UniProt P11387)”, the “probe-labelled cysteine peptide fold change” value was -0.344.

“TMEM39A_Q9NV64_276_NEVECLK (UniProt Q9NV64)”: the “probe-labelled cysteine peptide fold change” value is 0.306.

Regarding “TP53BP1_Q12888_712_ECSEAMEVETSVISIDSPQK (UniProt Q12888)”, the “probe-labelled cysteine peptide fold change” value came to 0.0948.

Take “TMEM214_Q6NUQ4_222_ICIQAILQDKPK (UniProt Q6NUQ4)”: the “probe-labelled cysteine peptide fold change” value was 0.0567.

On to “TM9SF3_Q9HD45_108_DDVMPATYCEIDLDK (UniProt Q9HD45)”, for which the “probe-labelled cysteine peptide fold change” value was 0.319.

For the target “TOPBP1_Q92547_113_AEHPVYNMVMSDVTISCTSLEK (UniProt Q92547)”, the “probe-labelled cysteine peptide fold change” value was -0.145.

As to “TMEM104_Q8NE00_455_DTQLAFGCGVSNK (UniProt Q8NE00)”, the “probe-labelled cysteine peptide fold change” value came to 0.0334.

As to “TOR4A_Q9NXH8_374_DVVSCFRDEMAGEGFFPDQAR (UniProt Q9NXH8)”, the “probe-labelled cysteine peptide fold change” value is 0.0221.

In the case of “TNPO1_Q92973_142_LCSLLDSEDYNTCEGAFGALQK (UniProt Q92973)”, the “probe-labelled cysteine peptide fold change” value was -0.143.

In the case of “TMEM209_Q96SK2_295_KFQYQLACR (UniProt Q96SK2)”, the “probe-labelled cysteine peptide fold change” value was -0.194.

Take “TOP3B_O95985_118_GCDYIVLWLDCDK (UniProt O95985)”: the “probe-labelled cysteine peptide fold change” value was 0.298.

On to “TLN1_Q9Y490_1509_HTSALCNSCR (UniProt Q9Y490)”, for which the “probe-labelled cysteine peptide fold change” value amounted to 0.139.

With “TMA16_Q96EY4_162_KICANDAIPK (UniProt Q96EY4)”, the “probe-labelled cysteine peptide fold change” value was -0.223.

Consider “TMEM161A_Q9NX61_33_WLLCNGSLFR (UniProt Q9NX61)”, for which the “probe-labelled cysteine peptide fold change” value was -0.147.

Consider “TMEM126B_Q8IUX1_151_SSLIGIVCGVFYPSSLAFTK (UniProt Q8IUX1)”, for which the “probe-labelled cysteine peptide fold change” value was determined as 0.0309.

“TOP2B_Q02880_1018+1029_LQTTLTCNSMVLFDHMGCLK (UniProt Q02880)”: the “probe-labelled cysteine peptide fold change” value was 0.141.

Regarding “TM9SF2_Q99805_194_DACVISSDFHER (UniProt Q99805)”, the “probe-labelled cysteine peptide fold change” value was 0.187.

Consider “TOP2A_P11388_216_AGEMELKPFNGEDYTCITFQPDLSK (UniProt P11388)”, for which the “probe-labelled cysteine peptide fold change” value was determined as 0.146.

For the target “TOP1_P11387_504_EEGETADTVGCCSLR (UniProt P11387)”, the “probe-labelled cysteine peptide fold change” value was found to be 0.143.

For “TM9SF1_O15321_107_ILCHMQLSSAQVEQLR (UniProt O15321)”, the “probe-labelled cysteine peptide fold change” value was -0.101.

For “TOPBP1_Q92547_60_SLYICDPFSGVVFDHLK (UniProt Q92547)”, the “probe-labelled cysteine peptide fold change” value worked out at 0.248.

With “TOPBP1_Q92547_1200_QAVCDPGNIR (UniProt Q92547)”, the “probe-labelled cysteine peptide fold change” value was determined as 0.0229.

Consider “TMCO6_Q96DC7_14_LRPTVCGVEELRR (UniProt Q96DC7)”, for which the “probe-labelled cysteine peptide fold change” value was determined as 0.00216.

With “TM9SF4_Q92544_100+104_KCEVLCSQSNKPVTLTVEQSR (UniProt Q92544)”, the “probe-labelled cysteine peptide fold change” value was -0.00665.

For “TMEM30A_Q9NV96_17_AMNYNAKDEVDGGPPCAPGGTAK (UniProt Q9NV96)”, the “probe-labelled cysteine peptide fold change” value was -0.188.

Turning to “TLN2_Q9Y4G6_1204_AVSHSLNNCVNCLPGQK (UniProt Q9Y4G6)”, the “probe-labelled cysteine peptide fold change” value came to 0.0384.

For “TOMM70_O94826_588_SEMEMAHLYSLCDAAHAQTEVAKK (UniProt O94826)”, the “probe-labelled cysteine peptide fold change” value is -0.187.

Regarding “TMTC3_Q6ZXV5_794_CLLETLALAPHEEYIQR (UniProt Q6ZXV5)”, the “probe-labelled cysteine peptide fold change” value came out at 0.122.

“TOMM70_O94826_427_ILLDQVEEAVADFDECIR (UniProt O94826)”: the “probe-labelled cysteine peptide fold change” value was -0.258.

Regarding “TOMM40_O96008_74+76_TPGAATASASGAAEDGACGCLPNPGTFEECHRK (UniProt O96008)”, the “probe-labelled cysteine peptide fold change” value is 0.168.

Still in this experiment, the particulars now being: 50 µM; THP-1; incubation time: 4 h.
With “TMEM9B_Q9NQ34_68_DCDCLHVVEPMPVRGPDVEAYCLR (UniProt Q9NQ34)”, the “probe-labelled cysteine peptide fold change” value came to 0.237.

With “TM7SF3_Q9NS93_180_GVDPPPCDAGTDQDSR (UniProt Q9NS93)”, the “probe-labelled cysteine peptide fold change” value is -0.095.

“TOPBP1_Q92547_1485_TEYIADYLMQESPPHVENYCLPEAISFIQNNK (UniProt Q92547)”: the “probe-labelled cysteine peptide fold change” value was 0.142.

For the target “TOP1_P11387_386_RIMPEDIIINCSK (UniProt P11387)”, the “probe-labelled cysteine peptide fold change” value is -0.0196.

With “TNIP2_Q8NFZ5_428_HVAECCQ (UniProt Q8NFZ5)”, the “probe-labelled cysteine peptide fold change” value came out at 0.0514.

For “TMPO_P42166_341_SGIQPLCPER (UniProt P42166)”, the “probe-labelled cysteine peptide fold change” value is -0.196.

In the case of “TP53BP1_Q12888_101_VADPVDSSNLDTCGSISQVIEQLPQPNR (UniProt Q12888)”, the “probe-labelled cysteine peptide fold change” value was -0.45.

In the case of “TPI1_P60174_124_DCGATWVVLGHSER (UniProt P60174)”, the “probe-labelled cysteine peptide fold change” value came to 0.0907.

With “TNS3_Q68CZ2_25_IIAVSFPAGCSEESYLHNLQEVTR (UniProt Q68CZ2)”, the “probe-labelled cysteine peptide fold change” value is -0.321.

Consider “TNPO1_Q92973_153_LCSLLDSEDYNTCEGAFGALQK (UniProt Q92973)”, for which the “probe-labelled cysteine peptide fold change” value was -0.114.

Consider “TOP1_P11387_505_AGNEKEEGETADTVGCCSLR (UniProt P11387)”, for which the “probe-labelled cysteine peptide fold change” value was -0.338.

Regarding “TMEM39A_Q9NV64_276_NEVECLK (UniProt Q9NV64)”, the “probe-labelled cysteine peptide fold change” value stood at 0.183.

“TP53BP1_Q12888_712_ECSEAMEVETSVISIDSPQK (UniProt Q12888)”: the “probe-labelled cysteine peptide fold change” value is -0.262.

In the case of “TMEM214_Q6NUQ4_222_ICIQAILQDKPK (UniProt Q6NUQ4)”, the “probe-labelled cysteine peptide fold change” value came out at 0.0242.

“TM9SF3_Q9HD45_108_DDVMPATYCEIDLDK (UniProt Q9HD45)”: the “probe-labelled cysteine peptide fold change” value was found to be 0.245.

For “TOPBP1_Q92547_113_AEHPVYNMVMSDVTISCTSLEK (UniProt Q92547)”, the “probe-labelled cysteine peptide fold change” value was -0.208.

For “TMEM104_Q8NE00_455_DTQLAFGCGVSNK (UniProt Q8NE00)”, the “probe-labelled cysteine peptide fold change” value is -0.0938.

“TOR4A_Q9NXH8_374_DVVSCFRDEMAGEGFFPDQAR (UniProt Q9NXH8)”: the “probe-labelled cysteine peptide fold change” value was 0.147.

For the target “TNPO1_Q92973_142_LCSLLDSEDYNTCEGAFGALQK (UniProt Q92973)”, the “probe-labelled cysteine peptide fold change” value was found to be 0.104.

With “TMEM209_Q96SK2_295_KFQYQLACR (UniProt Q96SK2)”, the “probe-labelled cysteine peptide fold change” value was -0.278.

In the case of “TOP3B_O95985_118_GCDYIVLWLDCDK (UniProt O95985)”, the “probe-labelled cysteine peptide fold change” value came to 0.178.

As to “TLN1_Q9Y490_1509_HTSALCNSCR (UniProt Q9Y490)”, the “probe-labelled cysteine peptide fold change” value was -0.00269.

In the case of “TMA16_Q96EY4_162_KICANDAIPK (UniProt Q96EY4)”, the “probe-labelled cysteine peptide fold change” value is -0.344.

With “TMEM161A_Q9NX61_33_WLLCNGSLFR (UniProt Q9NX61)”, the “probe-labelled cysteine peptide fold change” value came out at 0.164.

Consider “TMEM126B_Q8IUX1_151_SSLIGIVCGVFYPSSLAFTK (UniProt Q8IUX1)”, for which the “probe-labelled cysteine peptide fold change” value is -0.126.

Regarding “TOP2B_Q02880_1018+1029_LQTTLTCNSMVLFDHMGCLK (UniProt Q02880)”, the “probe-labelled cysteine peptide fold change” value is -0.0526.

As to “TM9SF2_Q99805_194_DACVISSDFHER (UniProt Q99805)”, the “probe-labelled cysteine peptide fold change” value is 0.0277.

As to “TOP2A_P11388_216_AGEMELKPFNGEDYTCITFQPDLSK (UniProt P11388)”, the “probe-labelled cysteine peptide fold change” value is 0.192.

As for “TOP1_P11387_504_EEGETADTVGCCSLR (UniProt P11387)”, the “probe-labelled cysteine peptide fold change” value was found to be 0.242.

In the case of “TM9SF1_O15321_107_ILCHMQLSSAQVEQLR (UniProt O15321)”, the “probe-labelled cysteine peptide fold change” value is -0.0899.

In the case of “TOPBP1_Q92547_60_SLYICDPFSGVVFDHLK (UniProt Q92547)”, the “probe-labelled cysteine peptide fold change” value worked out at 0.28.

As to “TOPBP1_Q92547_1200_QAVCDPGNIR (UniProt Q92547)”, the “probe-labelled cysteine peptide fold change” value is -0.182.

“TMCO6_Q96DC7_14_LRPTVCGVEELRR (UniProt Q96DC7)”: the “probe-labelled cysteine peptide fold change” value was -0.154.

For the target “TM9SF4_Q92544_100+104_KCEVLCSQSNKPVTLTVEQSR (UniProt Q92544)”, the “probe-labelled cysteine peptide fold change” value was -0.296.

“TMEM30A_Q9NV96_17_AMNYNAKDEVDGGPPCAPGGTAK (UniProt Q9NV96)”: the “probe-labelled cysteine peptide fold change” value is -0.287.

With “TLN2_Q9Y4G6_1204_AVSHSLNNCVNCLPGQK (UniProt Q9Y4G6)”, the “probe-labelled cysteine peptide fold change” value was determined as 0.0187.

For “TOMM70_O94826_588_SEMEMAHLYSLCDAAHAQTEVAKK (UniProt O94826)”, the “probe-labelled cysteine peptide fold change” value is -0.0954.

“TMTC3_Q6ZXV5_794_CLLETLALAPHEEYIQR (UniProt Q6ZXV5)”: the “probe-labelled cysteine peptide fold change” value stood at 0.113.

Regarding “TOMM70_O94826_427_ILLDQVEEAVADFDECIR (UniProt O94826)”, the “probe-labelled cysteine peptide fold change” value is -0.163.

Regarding “TOMM40_O96008_74+76_TPGAATASASGAAEDGACGCLPNPGTFEECHRK (UniProt O96008)”, the “probe-labelled cysteine peptide fold change” value is -0.158.

(Values after the supplement of paper PMC12067093, “Discovery and optimisation of a covalent ligand for TRIM25 and its application to targeted protein ubiquitination” (Chemical Science, 2025).)
